Source: PubChem BioAssay AID2685 (National Center for Advancing Translational Sciences (NCATS), 2010)
The list shows a part of the results. These are further read-outs of the screen, such as a control signal, another cell line or another target. No call is given for them. Compounds called inactive in the main read-out are mostly missing here. The note in brackets gives the kind of curve behind each potency; many fits are weak.

Assay: qHTS Assay for Lipid Storage Modulators in Drosophila S3 Cells;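 as to cell number change: cells counted by Cell Tracker Red CMTPX staining in the red channel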
Details: BODIPY lipid droplet fluorescence, 18-24 h; for cell number change: measured here: cell count max response, cells fed with added oleic acid
Method in brief: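 Drosophila S3 cells loaded with oleic acid (400 uM, as added) and compounds at several concentrations; lipid droplets imaged by 488-nm laser-scanning cytometry, 500–530 nm intensity and object ratio to cell channel. Percent activity normalized to 20 uM Triacsin C.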

[1] = measured here: cell number channel AC50, cells fed with added oleic acid
[2] = measured here: lipid fluorescence (Fed channel) AC50, cells fed with added oleic acid

SMILES	cell number change [%]	AC50 [1]	AC50 [2]
O=C(Nc1ccccc1)/C(=C1\CCCN1)[N+](=O)[O-]	-27.8	0.116 µM [falling, full curve, poor fit]	0.164 µM [falling, full curve]
O=S(=O)(Nc1ncccn1)c1ccc(NS(=O)(=O)c2cc(Cl)ccc2Cl)cc1	17.2	–	–
Cc1ccc(/C=N/NC(=O)Cc2ccc(Cl)cc2)c(O)c1	-12.2	–	18.4 µM [falling, single point]
Fc1cc(F)c(F)c(SCCc2ccncc2)c1F	-42.5	23.1 µM [falling, single point]	29.1 µM [falling, single point]
O=C(NC(=S)Nc1cccc(S(=O)(=O)NC2=NCCC2)c1)c1cc(-c2ccco2)nc2ccccc12	-24.7	–	29.1 µM [falling, single point]
Cc1noc(C)c1NC(=O)NCCN1CCN(Cc2ccccc2)CC1	-21.4	–	29.1 µM [falling, single point]
COc1cccc(NC(=O)CN(C)C(=O)c2oc3c(ccc4ccccc43)c2C)c1	4.36	–	6.51 µM [rising, partial curve]
Nc1nc(-c2ccc(-c3ccccc3)cc2)cs1	54.4	14.6 µM [rising, partial curve, poor fit]	–
COc1ccc(Br)cc1CNC(=O)Cn1nc(C)n2cccc2c1=O	-24.5	–	6.51 µM [rising, single point]
COc1ccc(OC)c(NC(=O)CCC(=O)N(Cc2ccc(OC)c(OC)c2)c2nccs2)c1	0.753	–	5.17 µM [falling, single point]
CCOC(=O)C1CCN(S(=O)(=O)c2c[nH]c(=O)[nH]c2=O)CC1	10.5	–	–
O=C(CNCc1ccc(F)cc1)Nc1ccccc1[N+](=O)[O-]	-8.94	–	6.51 µM [falling, partial curve, poor fit]
COc1ccc(-n2nc3c(c2NC(=O)COc2cccc(OC)c2)CS(=O)(=O)C3)cc1	–	0.146 µM [falling, full curve, poor fit]	–
CC(=O)Nc1ccc2c(c1)C(=O)N(c1ccc(C)cc1)C2=O	110	4.61 µM [rising, partial curve]	2.91 µM [rising, partial curve]
CCc1cc(C(=O)NC2CCCN(Cc3ccccc3F)C2)n(C)n1 (configuration not stated)	-0.597	–	5.17 µM [rising, partial curve]
Cc1ccc(C(CC(=O)N2CCNCC2)c2ccccc2)c(O)c1C (configuration not stated)	97.2	6.51 µM [rising, partial curve]	–
Cc1ccc(N=C2CSC(=O)N2)cc1	-24.4	–	25.9 µM [falling, single point]
Cn1c(SCC(=O)NC2CCCCC2)nnc1-c1cc2ccccc2o1	-8.7	–	6.51 µM [falling, full curve, poor fit]
CC1=C(C(=O)Nc2ccccc2C(=O)NC2CCC(C)CC2)SCCO1 (configuration not stated)	27.4	–	18.4 µM [rising, single point]
O=C(Nc1ccc(Cl)cc1)C1CCCN(C2=NS(=O)(=O)c3ccccc32)C1 (configuration not stated)	0.752	–	6.51 µM [falling, single point]
CCCc1cc(=O)n2[nH]c(-c3ccc(OC)cc3)nc2n1	38.8	14.6 µM [rising, single point]	–

SMILES	cell number change [%]	AC50 [1]	AC50 [2]
O=C(COc1ccccc1F)c1ccc(O)cc1O	-8.84	–	–
Cc1ccccc1C(=O)NCCNC(=O)c1cnccn1	3.95	–	1.58 µM [rising, partial curve]
CN1/C(=C/C=N/NC(=O)c2ccc([N+](=O)[O-])cc2)C(C)(C)c2ccccc21	16.4	–	14.6 µM [rising, single point]
Cc1cc(NC(=O)C(C)(C)C)no1	-184	20.6 µM [falling, partial curve]	0.00461 µM [falling, full curve, poor fit]
CCSc1nc(-c2ccco2)ccc1C#N	23.8	–	6.51 µM [falling, single point]
O=C(C1CCC1)N1CCc2cc(S(=O)(=O)NCC3COc4ccccc4O3)ccc21 (configuration not stated)	283	20.6 µM [rising, partial curve]	–
COc1ccccc1OCC(=O)Nc1sc2c(c1C(=O)NCC1CCCO1)CCC2 (configuration not stated)	-21.9	–	–
Cc1nn(CCC(=O)NCc2ccc(OC(C)C)cc2)c(=O)c2nn(-c3ccccc3)c(C)c12	23.2	1.3 µM [rising, full curve, poor fit]	4.61 µM [rising, partial curve, poor fit]
CCOc1ccc2nc(SCC(=O)c3ccccc3)sc2c1	-0.417	–	0.231 µM [falling, full curve]
Cc1ccc(SC(C)C(=O)Nc2ccc(S(=O)(=O)N3CCOCC3)cc2)cc1 (configuration not stated)	–	–	11.6 µM [falling, partial curve, poor fit]
O=C(c1ccc(Cl)c(F)c1F)N1CCOCC1	10.9	–	6.51 µM [falling, full curve]
Cc1ccc(-c2nnc(SCC(=O)Nc3nc4c(s3)CCCC4)n2C)cc1	-0.559	–	0.00461 µM [falling, full curve, poor fit]
O=C(Cn1nc(-c2ccccc2)ccc1=O)NCc1ccc2c(c1)OCO2	14.8	–	–
O=C(CCCCCN1C(=O)c2cccc3cccc(c23)C1=O)N1CCOCC1	19.2	–	–
CC/C=C/C(=O)N1CC2(CC(c3cccc(NC(=O)COc4ccc(Cl)cc4)c3)=NO2)C[C@H]1C(N)=O (some centres not stated)	-11.4	–	16.4 µM [falling, single point]
COc1ccc(S(=O)(=O)N2Cc3ccccc3CC2C(=O)Nc2nccs2)cc1OC (configuration not stated)	–	1.3 µM [rising, full curve]	0.517 µM [rising, partial curve, poor fit]
Cc1ccc(-c2ccc(=O)n(Cc3ccc(F)cc3Cl)n2)cc1	-27.5	–	29.1 µM [falling, single point]
N#Cc1ccccc1CSc1nc2ccc(NC(=O)c3ccccc3C(=O)O)cc2s1	9.9	–	–
Cc1cnc(C(=O)OCC(=O)Nc2sc3c(c2C(N)=O)CCCC3)cn1	-52.1	29.1 µM [falling, single point]	3.66 µM [falling, single point]
Cn1nnnc1SCC(=O)N1CCCCC1	-2.25	–	–
CC1(C)CC2c3cccc(C(=O)O)c3C(=O)N2c2c1ccc1ccccc21 (configuration not stated)	21.6	–	23.1 µM [rising, single point]

SMILES	cell number change [%]	AC50 [1]	AC50 [2]
Nc1c(C(=O)N/N=C/c2ccccc2Cl)oc2nc(-c3ccccc3)cc(-c3ccco3)c12	-7.61	–	–
CN(C)c1ccc(C(O)P(=O)(OCc2ccccc2)c2ccc(N(C)C)cc2)cc1 (configuration not stated)	-13.6	–	–
Cc1ccc(SCC(=O)OCC(=O)NC2CCCCCCC2)cc1	-33	13 µM [falling, partial curve]	–
O=C(Nc1ccc(F)cc1)c1sc2cc(C(F)(F)F)cnc2c1-c1cccs1	27	3.66 µM [rising, full curve, poor fit]	1.64 µM [falling, partial curve]
COc1ccc(-n2nc(C(=O)NCC(=O)N3CCC(C(N)=O)CC3)c3ccccc3c2=O)cc1	6.25	–	–
O=C(c1ccc(Cl)c([N+](=O)[O-])c1)N1CCN(c2ccccc2)CC1	-12.7	–	29.1 µM [falling, single point]
Cc1cccc(OCc2nnc(SCn3nnc4ccccc4c3=O)o2)c1	-17.8	–	0.103 µM [rising, full curve, poor fit]
O=C(Nc1ccc2oc(-c3ccncc3)nc2c1)c1cccs1	–	–	0.13 µM [rising, full curve, poor fit]
Cc1ccc(-c2[nH]c(-c3ccc(C(=O)O)cc3)nc2-c2ccccc2)cc1	-1.27	–	1.84 µM [rising, full curve, poor fit]
COc1ccc(N(C(=O)C(C)C)S(=O)(=O)c2ccc(Cl)cc2)cc1	5.46	–	–
COc1ccc(CNS(=O)(=O)c2ccc(-c3cc(C)no3)cc2)cc1	13.7	3.26 µM [rising, single point]	–
CCCc1cc(-c2n[nH]c(=S)n2C(C)c2ccccc2)cs1 (configuration not stated)	-15.4	–	–
CN(c1nc2ccccc2nc1Cl)S(=O)(=O)c1ccccc1	-18.1	–	–
COc1ccc(CC(=O)Nc2c(C(=O)N3CCN(c4ccccc4OC)CC3)oc3ccccc23)cc1OC	-36.5	9.2 µM [falling, partial curve, poor fit]	29.1 µM [falling, single point]
CC1(C)NC(=O)N(CN2C(=O)NC(C)(C)C2=O)C1=O	-29.2	–	20.6 µM [falling, partial curve]
CCc1nc(SCc2ccc(Br)cc2)n[nH]1	24.1	–	14.6 µM [rising, partial curve, poor fit]
COCC(C)NC(=O)c1cc(OC)cc(OC)c1 (configuration not stated)	16	–	–
CCOC(=O)C(CC(=O)Nc1nc(C(C)=O)c(C)s1)C(C)c1ccccc1 (configuration not stated)	10.6	–	13 µM [falling, partial curve]
CC(=O)c1ccccc1OCc1ccc(C(=O)c2ccccc2)cc1	-3.63	–	29.1 µM [falling, single point]
Cc1ccc(N2CCOCC2)c2c1C(=O)c1ccccc1C2=O	-84.9	23.1 µM [falling, partial curve]	11.6 µM [falling, single point]
Cc1oc(-c2cccs2)nc1CN1CCN(C(C)C)C(CCO)C1 (configuration not stated)	-8.5	–	29.1 µM [falling, single point]

A run of entries from further up:
SMILES	cell number change [%]	AC50 [1]	AC50 [2]
Cc1ccc(SCC(=O)OCC(=O)NC2CCCCCCC2)cc1	-33	13 µM [falling, partial curve]	–
O=C(Nc1ccc(F)cc1)c1sc2cc(C(F)(F)F)cnc2c1-c1cccs1	27	3.66 µM [rising, full curve, poor fit]	1.64 µM [falling, partial curve]
COc1ccc(-n2nc(C(=O)NCC(=O)N3CCC(C(N)=O)CC3)c3ccccc3c2=O)cc1	6.25	–	–
O=C(c1ccc(Cl)c([N+](=O)[O-])c1)N1CCN(c2ccccc2)CC1	-12.7	–	29.1 µM [falling, single point]
